{"source": "PubChem BioAssay AID1259405 | NCATS – 2018", "assay": "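Mouse-designed siRNAs used to find CHO productivity engineering targets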 (primary screen)", "cell system": "Chinese hamster CHO-K1 ovary cells with stable secreted eGFP expression", "reagents": "single siRNA against mouse genes, 0.8 pmol siRNA per well (2 µl of 400 nM stock)", "timing": "3 days", "measured": "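Percent of the per-plate non-targeting control median for intracellular GFP per well by laser scanning cytometry and for cell viability by ATP luminescence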", "scale": "GFP, % of control: higher = more GFP per well, higher productivity; viability (ATP), % of control: higher = more viable cells (more ATP)", "call rule": "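Called active when intracellular GFP, relative to negative control, is at or above 120%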", "note": "The deposit covers about 50,000 reagents; this is a part drawn at random. Over the whole deposit, about 4,000 (8%) got an active call. 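Mouse siRNA library applied to hamster cells; one well for each siRNA.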 Reagents against one gene are numbered here."}
{"gene": "Mab21l4", "reagent": 1, "GFP, % of control": 73.4, "viability (ATP), % of control": 78.7, "call": "inactive"}
{"gene": "Mab21l4", "reagent": 2, "GFP, % of control": 20.7, "viability (ATP), % of control": 25.9, "call": "inactive"}
{"gene": "Mab21l4", "reagent": 3, "GFP, % of control": 82.9, "viability (ATP), % of control": 96.8, "call": "inactive"}
{"gene": "Qtrt1", "reagent": 1, "GFP, % of control": 188, "viability (ATP), % of control": 115, "call": "active"}
{"gene": "Qtrt1", "reagent": 2, "GFP, % of control": 84.2, "viability (ATP), % of control": 163, "call": "inactive"}
{"gene": "Qtrt1", "reagent": 3, "GFP, % of control": 83.9, "viability (ATP), % of control": 87.3, "call": "inactive"}
{"gene": "Sorl1", "reagent": 1, "GFP, % of control": 50.1, "viability (ATP), % of control": 76.6, "call": "inactive"}
{"gene": "Sorl1", "reagent": 2, "GFP, % of control": 26.6, "viability (ATP), % of control": 41.5, "call": "inactive"}
{"gene": "Sorl1", "reagent": 3, "GFP, % of control": 89, "viability (ATP), % of control": 87.1, "call": "inactive"}
{"gene": "BC005537", "reagent": 1, "GFP, % of control": 75.8, "viability (ATP), % of control": 92.3, "call": "inactive"}
{"gene": "BC005537", "reagent": 2, "GFP, % of control": 70.1, "viability (ATP), % of control": 83.6, "call": "inactive"}
{"gene": "BC005537", "reagent": 3, "GFP, % of control": 141, "viability (ATP), % of control": 138, "call": "active"}
{"gene": "Vrtn", "reagent": 1, "GFP, % of control": 116, "viability (ATP), % of control": 62.6, "call": "inactive"}
{"gene": "Vrtn", "reagent": 2, "GFP, % of control": 78.1, "viability (ATP), % of control": 95.1, "call": "inactive"}
{"gene": "Vrtn", "reagent": 3, "GFP, % of control": 82.2, "viability (ATP), % of control": 83.3, "call": "inactive"}

Part of the list above, reformatted:
| gene | reagent | GFP, % of control | viability (ATP), % of control | call |
| --- | --- | --- | --- | --- |
| Qtrt1 | 3 | 83.9 | 87.3 | inactive |
| Sorl1 | 1 | 50.1 | 76.6 | inactive |
| Sorl1 | 2 | 26.6 | 41.5 | inactive |

The listing continues:
{"gene": "Tbxa2r", "reagent": 1, "GFP, % of control": 43.7, "viability (ATP), % of control": 63.1, "call": "inactive"}
{"gene": "Tbxa2r", "reagent": 2, "GFP, % of control": 68.9, "viability (ATP), % of control": 68.8, "call": "inactive"}
{"gene": "Tbxa2r", "reagent": 3, "GFP, % of control": 95.7, "viability (ATP), % of control": 42.4, "call": "inactive"}
{"gene": "Hlf", "reagent": 1, "GFP, % of control": 62.1, "viability (ATP), % of control": 52.6, "call": "inactive"}
{"gene": "Hlf", "reagent": 2, "GFP, % of control": 51.8, "viability (ATP), % of control": 98.3, "call": "inactive"}
{"gene": "Hlf", "reagent": 3, "GFP, % of control": 109, "viability (ATP), % of control": 81.7, "call": "inactive"}
{"gene": "Dctn5", "reagent": 1, "GFP, % of control": 72, "viability (ATP), % of control": 84.1, "call": "inactive"}
{"gene": "Dctn5", "reagent": 2, "GFP, % of control": 74, "viability (ATP), % of control": 75.2, "call": "inactive"}
{"gene": "Dctn5", "reagent": 3, "GFP, % of control": 87, "viability (ATP), % of control": 89.5, "call": "inactive"}
{"gene": "Rnf122", "reagent": 1, "GFP, % of control": 35, "viability (ATP), % of control": 24.8, "call": "inactive"}
{"gene": "Rnf122", "reagent": 2, "GFP, % of control": 145, "viability (ATP), % of control": 53.4, "call": "active"}
{"gene": "Rnf122", "reagent": 3, "GFP, % of control": 82.6, "viability (ATP), % of control": 88.5, "call": "inactive"}
{"gene": "Sowahc", "reagent": 1, "GFP, % of control": 89.2, "viability (ATP), % of control": 77.9, "call": "inactive"}
{"gene": "Sowahc", "reagent": 2, "GFP, % of control": 95, "viability (ATP), % of control": 80.9, "call": "inactive"}
{"gene": "Sowahc", "reagent": 3, "GFP, % of control": 81.8, "viability (ATP), % of control": 103, "call": "inactive"}
{"gene": "Mpp3", "reagent": 1, "GFP, % of control": 66.6, "viability (ATP), % of control": 79.1, "call": "inactive"}
{"gene": "Ryr1", "reagent": 1, "GFP, % of control": 133, "viability (ATP), % of control": 98.4, "call": "active"}
{"gene": "Ryr1", "reagent": 2, "GFP, % of control": 95.3, "viability (ATP), % of control": 67.1, "call": "inactive"}
{"gene": "Ryr1", "reagent": 3, "GFP, % of control": 65.2, "viability (ATP), % of control": 60.5, "call": "inactive"}
{"gene": "Wnt9a", "reagent": 1, "GFP, % of control": 61.2, "viability (ATP), % of control": 56, "call": "inactive"}
{"gene": "Wnt9a", "reagent": 2, "GFP, % of control": 112, "viability (ATP), % of control": 71.1, "call": "inactive"}
{"gene": "Wnt9a", "reagent": 3, "GFP, % of control": 78.2, "viability (ATP), % of control": 64.4, "call": "inactive"}
{"gene": "Tmem37", "reagent": 1, "GFP, % of control": 73, "viability (ATP), % of control": 55.1, "call": "inactive"}
{"gene": "Tmem37", "reagent": 2, "GFP, % of control": 185, "viability (ATP), % of control": 66.5, "call": "active"}
{"gene": "Tmem37", "reagent": 3, "GFP, % of control": 131, "viability (ATP), % of control": 77.8, "call": "active"}
